The values that follow come from doi:10.1101/832873.

Assay [1] has as its target T1, Dppa2-GFP (Developmental Pluripotency Associated 2, GFP-tagged) (UniProt Q9CWH0).
T1 sequence: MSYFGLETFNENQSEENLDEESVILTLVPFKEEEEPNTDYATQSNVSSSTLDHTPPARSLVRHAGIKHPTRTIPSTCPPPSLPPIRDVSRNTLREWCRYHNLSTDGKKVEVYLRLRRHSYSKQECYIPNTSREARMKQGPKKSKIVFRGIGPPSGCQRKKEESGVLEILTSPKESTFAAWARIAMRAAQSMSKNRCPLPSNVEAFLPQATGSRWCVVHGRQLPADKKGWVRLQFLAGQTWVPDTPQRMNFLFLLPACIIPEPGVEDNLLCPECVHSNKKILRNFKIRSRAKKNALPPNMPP
The assay can be described thus: affinity purification with mass spectrometry.

For assay [2], the target named is T2, Dppa4-GFP (Developmental Pluripotency Associated 4, GFP-tagged) (UniProt Q8CCG4).
T2 sequence: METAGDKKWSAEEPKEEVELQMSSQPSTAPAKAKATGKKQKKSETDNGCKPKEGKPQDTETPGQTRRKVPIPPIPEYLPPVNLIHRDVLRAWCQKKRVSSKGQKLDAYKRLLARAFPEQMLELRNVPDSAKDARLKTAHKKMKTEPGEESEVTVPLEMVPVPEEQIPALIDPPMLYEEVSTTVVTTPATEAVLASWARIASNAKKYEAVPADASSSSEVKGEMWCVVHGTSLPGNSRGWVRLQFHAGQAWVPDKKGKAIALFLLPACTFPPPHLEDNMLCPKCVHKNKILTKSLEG
As to the kind of experiment: affinity purification with mass spectrometry.

Results are given in words; binding and its absence hold for the method and conditions named. In cells and extracts the contact can be indirect. A yes stands for co-enrichment or nearness to the bait. Other partners may have been found. Sequences can lack the tags named with a protein.

Take Zscan4 (mouse (endogenous in E14 ESCs)): the binding result in assay [1] and in assay [2] was “binds” throughout.

B1: Dppa2 (Developmental Pluripotency Associated 2), endogenous (protein, UniProt Q9CWH0 1-301)
chain: T1 sequence
With B1, the binding result in assay [2] is given as “binds”.

B2: Dppa4 (Developmental Pluripotency Associated 4), endogenous (protein, UniProt Q8CCG4 1-296)
chain: T2 sequence
As to B2, the binding result in assay [1] is “binds”.
